Measurements reported in PubChem BioAssay AID686938 (Drosophila RNAi Screening Center, 2013)

Aim: 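Knock-downs reducing store-operated calcium influx in Drosophila cells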 (primary screen)
Cells: Drosophila S2R+ cells
Reagent: long dsRNA against Drosophila genes, about 0.25 µg dsRNA per well, roughly 10,000 cells
Duration: 5 days of knock-down before the calcium assay
Conditions: thapsigargin (SERCA pump blocker) to empty calcium stores; entry signal taken 4 min after adding it
Measured: 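Per-well fluo-4 fluorescence in two replicates, unnormalised, measured in resting cells and 4 min after store depletion by the SERCA blocker thapsigargin; ratio of the two present in few wells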
Reading the numbers: calcium entry signal: higher = stronger calcium signal after store depletion; entry to resting ratio: higher = more calcium entry relative to resting level; resting calcium signal: higher = higher resting calcium signal
Call rule: 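Hit if the duplicate-averaged plate z-score for entry over resting signal is under −3; wells with weak total dye signal (Fmax z < −2) or more than 5 off-targets removed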
Meaning of the calls: active = strongly reduced calcium entry; inactive = no strong reduction
In all, the deposit lists about 23,000 reagents; shown is an unselected part of those with a known target gene and a result. Of all reagents, 75 (0.33%) are marked active. 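Raw plate signals without normalisation; calls rest on plate z-scores that were not deposited; ratio present for only 364 wells.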 Names joined by + are all predicted targets of the reagent. No sequences are given here. Not stated in the record: the dose of the treatment.

gene | amplicon | calcium entry signal, replicate 1 (fluorescence units) | calcium entry signal, replicate 2 (fluorescence units) | entry to resting ratio | resting calcium signal, replicate 1 (fluorescence units) | resting calcium signal, replicate 2 (fluorescence units) | activity call
CG17121 | DRSC15176 | 4.75e7 | 6.30e7 | – | 2.42e7 | 2.46e7 | inactive
Gba1b | DRSC21531 | 3.89e7 | 3.48e7 | – | 2.36e7 | 1.69e7 | inactive
Mur82C | DRSC12011 | 3.23e7 | 4.84e7 | – | 1.72e7 | 2.20e7 | inactive
Mur82C | DRSC12212 | 2.71e7 | 1.97e7 | – | 1.46e7 | 1.10e7 | inactive
nau | DRSC17011 | 4.88e7 | 4.48e7 | – | 2.12e7 | 2.05e7 | inactive
AP-2mu | DRSC14090 | 7.54e7 | 2.72e7 | – | 3.19e7 | 1.39e7 | inactive
brat | DRSC03497 | 4.70e7 | – | – | 2.37e7 | – | inactive
Pxn | DRSC08685 | 3.85e7 | 3.83e7 | – | 1.85e7 | 1.88e7 | inactive
tefu | DRSC16060 | 3.56e7 | 4.60e7 | – | 1.73e7 | 7.07e7 | inactive
Hsp70Aa + Hsp70Bb + Hsp70Ba + 3 more | DRSC15380 | 3.51e7 | 3.81e7 | – | 1.63e7 | 2.03e7 | inactive
CG7335 | DRSC10816 | 3.38e7 | 5.01e7 | – | 1.57e7 | 2.15e7 | inactive
msl-2 | DRSC00829 | 3.45e7 | – | – | 2.19e7 | – | inactive
mRpL36 | DRSC10337 | 3.92e7 | 3.81e7 | – | 1.67e7 | 1.74e7 | inactive
CG6443 | DRSC02958 | 4.01e7 | – | – | 1.94e7 | – | inactive
CG43193 (retired record) | DRSC20426 | 3.11e7 | 3.43e7 | – | 1.53e7 | 1.73e7 | inactive
Sodh2 | DRSC16865 | 3.60e7 | 4.43e7 | – | 1.74e7 | 2.08e7 | inactive
sro | DRSC14469 | 3.84e7 | 4.43e7 | – | 1.97e7 | 2.17e7 | inactive
unc-4 | DRSC20381 | 2.87e7 | 3.98e7 | – | 1.53e7 | 1.81e7 | inactive
unc-4 | DRSC22074 | 3.10e7 | 5.15e7 | – | 1.58e7 | 2.74e7 | inactive
MESR3 | DRSC02463 | 2.92e7 | 4.89e7 | – | 1.52e7 | 2.01e7 | inactive
CG13747 | DRSC06418 | 4.61e7 | 3.42e7 | – | 1.87e7 | 1.57e7 | inactive
Pdp | DRSC17825 | 4.29e7 | 3.99e7 | – | 2.04e7 | 2.04e7 | inactive
sty | DRSC08737 | 2.66e7 | 2.77e7 | – | 1.42e7 | 1.42e7 | inactive
sty | DRSC22994 | 5.66e7 | 3.46e7 | – | 2.46e7 | 1.36e7 | inactive

The list goes on (5 carried over from the part before).
gene | amplicon | calcium entry signal, replicate 1 (fluorescence units) | calcium entry signal, replicate 2 (fluorescence units) | entry to resting ratio | resting calcium signal, replicate 1 (fluorescence units) | resting calcium signal, replicate 2 (fluorescence units) | activity call
MESR3 | DRSC02463 | 2.92e7 | 4.89e7 | – | 1.52e7 | 2.01e7 | inactive
CG13747 | DRSC06418 | 4.61e7 | 3.42e7 | – | 1.87e7 | 1.57e7 | inactive
Pdp | DRSC17825 | 4.29e7 | 3.99e7 | – | 2.04e7 | 2.04e7 | inactive
sty | DRSC08737 | 2.66e7 | 2.77e7 | – | 1.42e7 | 1.42e7 | inactive
sty | DRSC22994 | 5.66e7 | 3.46e7 | – | 2.46e7 | 1.36e7 | inactive
Cyp4d1 | DRSC17694 | 5.24e7 | 3.89e7 | – | 2.53e7 | 1.89e7 | inactive
Cyp4d1 | DRSC18456 | 4.81e7 | 4.95e7 | 2 | 2.42e7 | 2.15e7 | inactive
Cpr67Fa2 | DRSC10315 | 2.46e7 | 3.29e7 | – | 1.32e7 | 1.42e7 | inactive
CG8407 | DRSC07167 | 1.70e7 | 3.13e7 | – | 1.01e7 | 1.20e7 | inactive
CG6055 | DRSC02923 | 4.08e7 | 3.84e7 | – | 2.01e7 | 1.67e7 | inactive
Hr78 | DRSC11866 | 2.69e7 | 3.54e7 | – | 1.27e7 | 2.44e7 | inactive
HIP + HIP-R | DRSC18245 | 3.82e7 | 4.34e7 | – | 1.81e7 | 2.04e7 | inactive
CG12470 | DRSC18620 | 4.32e7 | 4.76e7 | 2.1 | 2.05e7 | 2.03e7 | inactive
CG13919 | DRSC08388 | 3.71e7 | 5.08e7 | – | 1.90e7 | 2.07e7 | inactive
Dpm1 | DRSC02018 | 4.71e7 | 4.44e7 | – | 2.41e7 | 2.02e7 | inactive
Ank | DRSC17127 | 3.15e7 | 3.26e7 | – | 1.44e7 | 1.48e7 | inactive
CG32793 | DRSC18145 | 4.43e7 | 5.63e7 | 2.1 | 2.13e7 | 2.27e7 | inactive
CG32793 | DRSC18194 | 3.86e7 | 6.18e7 | 2.2 | 1.77e7 | 2.30e7 | inactive
Taf7 | DRSC15445 | 3.52e7 | 2.38e7 | – | 1.74e7 | 1.27e7 | inactive
Grd | DRSC11178 | 3.47e7 | 5.15e7 | – | 1.77e7 | 1.99e7 | inactive
SdhCL | DRSC16078 | 3.55e7 | 3.68e7 | – | 1.75e7 | 1.85e7 | inactive
